Results: ChEMBL document CHEMBL1140759, “Synthesis, anti-Toxoplasma gondii and antimicrobial activities of benzaldehyde 4-phenyl-3-thiosemicarbazones and 2-[(phenylmethylene)hydrazono]-4-oxo-3-phenyl-5-thiazolidineacetic acids” (Bioorg Med Chem, 2008)

Tested on: Candida albicans
Experiment: Antimicrobial activity against Candida albicans at 100 ug/disc
Assay type: functional, organism-based

Sequence: NYSTATIN
- inhibition zone (IZ): 26 mm
